Some of the results follow.
Columns and labels:
Test in all cases: glycan array binding signal (z-score within array); higher = stronger binding
Details in all cases: glycan notation: IUPAC condensed, linker removed
Fuc(a1-2)Gal = target: Fuc(a1-2)Gal
How it was run: (§1)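 Glycan array binding is given as a within-array Z-score, which can be read as non-binding when negative. The arrays, 3228 of them, came from the Consortium for Functional Glycomics database and were retained only where the protein sequence was available. Z-scores were averaged across arrays of the same protein sequence at different concentrations or buffers and across linkers.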

Fuc(a1-2)Gal(b1-3)GalNAc = target: Fuc(a1-2)Gal(b1-3)GalNAc
How it was run: as §1

[1] = target: Fuc(a1-2)Gal(b1-3)GalNAc(a1-3)[Fuc(a1-2)]Gal(b1-4)Glc
How it was run: as §1

[2] = target: Fuc(a1-2)Gal(b1-3)GalNAc(a1-3)[Fuc(a1-2)]Gal(b1-4)GlcNAc
How it was run: as §1

[3] = target: Fuc(a1-2)Gal(b1-3)GalNAc(b1-3)Gal
How it was run: as §1

[4] = target: Fuc(a1-2)Gal(b1-3)GalNAc(b1-3)Gal(a1-4)Gal(b1-4)Glc
How it was run: as §1

[5] = target: Fuc(a1-2)Gal(b1-3)GalNAc(b1-4)[Neu5Ac(a2-3)]Gal(b1-4)Glc
How it was run: as §1

Fuc(a1-2)Gal(b1-3)GlcNAc = target: Fuc(a1-2)Gal(b1-3)GlcNAc
How it was run: as §1

[6] = target: Fuc(a1-2)Gal(b1-3)GlcNAc(b1-2)Man(a1-3)[Fuc(a1-2)Gal(b1-3)GlcNAc(b1-2)Man(a1-6)]Man(b1-4)GlcNAc(b1-4)GlcNAc
How it was run: as §1

[7] = target: Fuc(a1-2)Gal(b1-3)GlcNAc(b1-2)Man(a1-3)[Fuc(a1-2)Gal(b1-3)GlcNAc(b1-2)Man(a1-6)]Man(b1-4)GlcNAc(b1-4)[Fuc(a1-6)]GlcNAc
How it was run: as §1

[8] = target: Fuc(a1-2)Gal(b1-3)GlcNAc(b1-3)Gal(b1-4)Glc
How it was run: as §1

[9] = target: Fuc(a1-2)Gal(b1-3)GlcNAc(b1-3)GalNAc
How it was run: as §1

[10] = target: Fuc(a1-2)Gal(b1-3)GlcNAc(b1-3)[Fuc(a1-2)Gal(b1-3)GlcNAc(b1-6)]GalNAc
How it was run: as §1

[11] = target: Fuc(a1-2)Gal(b1-3)GlcNAc(b1-3)[Fuc(a1-3)[Gal(b1-4)]GlcNAc(b1-6)]Gal(b1-4)Glc
How it was run: as §1

[12] = target: Fuc(a1-2)Gal(b1-3)GlcNAc(b1-3)[Gal(b1-4)GlcNAc(b1-6)]Gal(b1-4)Glc
How it was run: as §1

[13] = target: Fuc(a1-2)Gal(b1-3)GlcNAc(b1-3)[Neu5Ac(a2-6)Gal(b1-4)GlcNAc(b1-6)]Gal(b1-4)Glc
How it was run: as §1

[14] = target: Fuc(a1-2)Gal(b1-3)GlcNAc6S
How it was run: as §1

[15] = target: Fuc(a1-2)Gal(b1-3)[Fuc(a1-4)]GlcNAc
How it was run: as §1

[16] = target: Fuc(a1-2)Gal(b1-3)[Fuc(a1-4)]GlcNAc(b1-2)Man(a1-3)[Fuc(a1-2)Gal(b1-3)[Fuc(a1-4)]GlcNAc(b1-2)Man(a1-3)]Man(b1-4)GlcNAc(b1-4)GlcNAc
How it was run: as §1

[17] = target: Fuc(a1-2)Gal(b1-3)[Fuc(a1-4)]GlcNAc(b1-2)Man(a1-3)[Fuc(a1-2)Gal(b1-3)[Fuc(a1-4)]GlcNAc(b1-2)Man(a1-6)]Man(b1-4)GlcNAc(b1-4)GlcNAc
How it was run: as §1

[18] = target: Fuc(a1-2)Gal(b1-3)[Fuc(a1-4)]GlcNAc(b1-2)Man(a1-3)[Fuc(a1-2)Gal(b1-3)[Fuc(a1-4)]GlcNAc(b1-2)Man(a1-6)]Man(b1-4)GlcNAc(b1-4)[Fuc(a1-6)]GlcNAc(b1-4)[Fuc(a1-6)]GlcNAc
How it was run: as §1

[19] = target: Fuc(a1-2)Gal(b1-3)[Fuc(a1-4)]GlcNAc(b1-2)Man(a1-6)[Fuc(a1-2)Gal(b1-3)[Fuc(a1-4)]GlcNAc(b1-2)Man(a1-3)]Man(b1-4)GlcNAc(b1-4)[Fuc(a1-6)]GlcNAc
How it was run: as §1

[20] = target: Fuc(a1-2)Gal(b1-3)[Fuc(a1-4)]GlcNAc(b1-3)[Fuc(a1-3)[Gal(b1-4)]GlcNAc(b1-6)]Gal(b1-4)Glc
How it was run: as §1

[21] = target: Fuc(a1-2)Gal(b1-3)[Fuc(a1-4)]GlcNAc(b1-3)[Gal(b1-4)GlcNAc(b1-6)]Gal(b1-4)Glc
How it was run: as §1

[22] = target: Fuc(a1-2)Gal(b1-4)Fuc(a1-3)]GlcNAc(b1-2)Man(a1-3)[Fuc(a1-2)Gal(b1-4)[Fuc(a1-3)]GlcNAc(b1-2)Man(a1-6)]Man(b1-4)GlcNAc(b1-4)GlcNAc
How it was run: as §1

Fuc(a1-2)Gal(b1-4)Glc = target: Fuc(a1-2)Gal(b1-4)Glc
How it was run: as §1

Fuc(a1-2)Gal(b1-4)Glc6S = target: Fuc(a1-2)Gal(b1-4)Glc6S
How it was run: as §1

Fuc(a1-2)Gal(b1-4)GlcNAc = target: Fuc(a1-2)Gal(b1-4)GlcNAc
How it was run: as §1

[23] = target: Fuc(a1-2)Gal(b1-4)GlcNAc(b1-2)Man
How it was run: as §1

[24] = target: Fuc(a1-2)Gal(b1-4)GlcNAc(b1-2)Man(a1-3)[Fuc(a1-2)Gal(b1-4)GlcNAc(b1-2)Man(a1-6)]Man(b1-4)GlcNAc(b1-4)GlcNAc
How it was run: as §1

[25] = target: Fuc(a1-2)Gal(b1-4)GlcNAc(b1-2)Man(a1-3)[Fuc(a1-2)Gal(b1-4)GlcNAc(b1-2)Man(a1-6)]Man(b1-4)GlcNAc(b1-4)[Fuc(a1-6)]GlcNAc
How it was run: as §1

[26] = target: Fuc(a1-2)Gal(b1-4)GlcNAc(b1-2)[Fuc(a1-2)Gal(b1-4)GlcNAc(b1-4)]Man(a1-3)[Fuc(a1-2)Gal(b1-4)GlcNAc(b1-2)Man(a1-6)]Man(b1-4)GlcNAc(b1-4)GlcNAc
How it was run: as §1

[27] = target: Fuc(a1-2)Gal(b1-4)GlcNAc(b1-3)Gal(b1-4)GlcNAc
How it was run: as §1

[28] = target: Fuc(a1-2)Gal(b1-4)GlcNAc(b1-3)Gal(b1-4)GlcNAc(b1-2)Man(a1-3)[Fuc(a1-2)Gal(b1-4)GlcNAc(b1-3)Gal(b1-4)GlcNAc(b1-2)Man(a1-6)]Man(b1-4)GlcNAc(b1-4)GlcNAc
How it was run: as §1

[29] = target: Fuc(a1-2)Gal(b1-4)GlcNAc(b1-3)Gal(b1-4)GlcNAc(b1-3)Gal(b1-4)GlcNAc
How it was run: as §1

[30] = target: Fuc(a1-2)Gal(b1-4)GlcNAc(b1-3)GalNAc
How it was run: as §1

[31] = target: Fuc(a1-2)Gal(b1-4)GlcNAc(b1-3)[Fuc(a1-2)Gal(b1-4)GlcNAc(b1-6)]GalNAc
How it was run: as §1

[32] = target: Fuc(a1-2)Gal(b1-4)GlcNAc(b1-3)[Fuc(a1-3)[Gal(b1-4)]GlcNAc(b1-6)]Gal(b1-4)Glc
How it was run: as §1

[33] = target: Fuc(a1-2)Gal(b1-4)GlcNAc(b1-6)GalNAc
How it was run: as §1

[34] = target: Fuc(a1-2)Gal(b1-4)GlcNAc6S
How it was run: as §1

[35] = target: Fuc(a1-2)Gal(b1-4)[Fuc(a1-3)]GlcNAc
How it was run: as §1

[36] = target: Fuc(a1-2)Gal(b1-4)[Fuc(a1-3)]GlcNAc(b1-2)Man(a1-3)[Fuc(a1-2)Gal(b1-4)[Fuc(a1-3)]GlcNAc(b1-2)Man(a1-6)]Man(b1-4)GlcNAc(b1-4)GlcNAc
How it was run: as §1

[37] = target: Fuc(a1-2)Gal(b1-4)[Fuc(a1-3)]GlcNAc(b1-2)Man(a1-3)[Fuc(a1-2)Gal(b1-4)[Fuc(a1-3)]GlcNAc(b1-2)Man(a1-6)]Man(b1-4)GlcNAc(b1-4)[Fuc(a1-6)]GlcNAc
How it was run: as §1

[38] = target: Fuc(a1-2)Gal(b1-4)[Fuc(a1-3)]GlcNAc(b1-2)Man(a1-6)[Fuc(a1-2)Gal(b1-4)[Fuc(a1-3)]GlcNAc(b1-2)Man(a1-3)]Man(b1-4)GlcNAc(b1-4)[Fuc(a1-6)]GlcNAc
How it was run: as §1

[39] = target: Fuc(a1-2)Gal(b1-4)[Fuc(a1-3)]GlcNAc(b1-2)[Fuc(a1-2)Gal(b1-4)[Fuc(a1-3)]GlcNAc(b1-4)]Man(a1-3)[Fuc(a1-2)Gal(b1-4)[Fuc(a1-3)]GlcNAc(b1-2)Man(a1-6)]Man(b1-4)GlcNAc(b1-4)GlcNAc
How it was run: as §1

B1: Gal 10 (Homo sapiens), Q05315 (protein)
chain: MSLLPVPYTEAASLSTGSTVTIKGRPLVCFLNEPYLQVDFHTEMKEESDIVFHFQVCFGRRVVMNSREYGAWKQQVESKNMPFQDGQEFELSISVLPDKYQVMVNGQSSYTFDHRIKPEAVKMVQVWRDISLTKFNVSYLKR
glycan array binding signal (z-score) (Fuc(a1-2)Gal): 0.577
glycan array binding signal (z-score) (Fuc(a1-2)Gal(b1-3)GalNAc): -0.814
glycan array binding signal (z-score) [1]: -0.158
glycan array binding signal (z-score) [2]: -0.772
glycan array binding signal (z-score) [3]: -0.428
glycan array binding signal (z-score) [4]: 0.433
glycan array binding signal (z-score) [5]: 0.173
glycan array binding signal (z-score) (Fuc(a1-2)Gal(b1-3)GlcNAc): 0.29
glycan array binding signal (z-score) [6]: 0.82
glycan array binding signal (z-score) [7]: 0.638
glycan array binding signal (z-score) [8]: -0.548
glycan array binding signal (z-score) [9]: 0.589
glycan array binding signal (z-score) [10]: -0.484
glycan array binding signal (z-score) [11]: 0.274
glycan array binding signal (z-score) [12]: -0.47
glycan array binding signal (z-score) [13]: -0.098
glycan array binding signal (z-score) [14]: 0.923
glycan array binding signal (z-score) [15]: -1.46
glycan array binding signal (z-score) [16]: 0.078
glycan array binding signal (z-score) [17]: 0.861
glycan array binding signal (z-score) [18]: 0.379
glycan array binding signal (z-score) [19]: 0.81
glycan array binding signal (z-score) [20]: 0.276
glycan array binding signal (z-score) [21]: -0.403
glycan array binding signal (z-score) [22]: 0.408
glycan array binding signal (z-score) (Fuc(a1-2)Gal(b1-4)Glc): 1.26
glycan array binding signal (z-score) (Fuc(a1-2)Gal(b1-4)Glc6S): -0.411
glycan array binding signal (z-score) (Fuc(a1-2)Gal(b1-4)GlcNAc): -0.051
glycan array binding signal (z-score) [23]: -0.622
glycan array binding signal (z-score) [24]: 0.432
glycan array binding signal (z-score) [25]: 0.095
glycan array binding signal (z-score) [26]: 0.354
glycan array binding signal (z-score) [27]: -0.5
glycan array binding signal (z-score) [28]: -0.302
glycan array binding signal (z-score) [29]: -0.692
glycan array binding signal (z-score) [30]: 0.525
glycan array binding signal (z-score) [31]: 0.169
glycan array binding signal (z-score) [32]: -0.852
glycan array binding signal (z-score) [33]: 1.5
glycan array binding signal (z-score) [34]: -0.512
glycan array binding signal (z-score) [35]: -0.194
glycan array binding signal (z-score) [36]: 0.151
glycan array binding signal (z-score) [37]: -0.642
glycan array binding signal (z-score) [38]: 1.69
glycan array binding signal (z-score) [39]: 0.81

Reference: the supplement of paper PMC8728848
